Data as given in PubChem BioAssay AID1259308 (NCATS, 2017)
Here is a random part of about 59,000 deposited reagents. About 1,510 of all reagents (2.6%) were called active. 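Calls use total luciferase alone and ignore viability, so some active siRNAs may act by altering cell number.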 Further read-outs or replicates are left out here. Reagent sequences are not shown.

Test: 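Knock-downs that increase output of a recombinant reporter protein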 (primary screen)
System: human HEK293 embryonic kidney cells stably expressing firefly luciferase (HEK-CMV-Luc2-Hygro)
Reagent: single siRNA against human genes, 0.8 pmol siRNA per well
Timing: 72 h
Measured: 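Reporter luminescence and viable-cell signal on separate replicate plates, given as percent of non-targeting control and median/MAD z-scores, plus per-cell luciferase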
Direction: total luciferase, z-score: higher = more reporter protein produced
Call rule: 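An siRNA counts as active if its total luciferase robust z-score exceeds 3; genes with two or more such siRNAs out of three were retested with fresh siRNAs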
Meaning of the calls: active = raised luciferase; inactive = no rise

total luciferase, z-score, by target and reagent
RAB5C (RAB5C, member RAS oncogene family): SID160715571 0.536 inactive; SID160715572 1.01 inactive; SID160731637 -1.07 inactive
SLC37A4: SID160768131 2.41 inactive; SID160768142 -0.668 inactive; SID160768150 -1 inactive
B3GAT1 (beta-1,3-glucuronyltransferase 1): SID160724363 -1.04 inactive; SID160738343 1.98 inactive; SID160738344 2.57 inactive

Looked up above.
Under “total luciferase, z-score”, SLC37A4 [SID160768142] has -0.668
Value for SLC37A4 [SID160768131] in “activity call”: inactive
Value for B3GAT1 (beta-1,3-glucuronyltransferase 1) [SID160738344] in “total luciferase, z-score”: 2.57
RAB5C (RAB5C, member RAS oncogene family) [SID160731637], total luciferase, z-score = -1.07

The list goes on:
total luciferase, z-score, by target and reagent
KIAA0319: SID160723267 -1.75 inactive; SID160723268 -0.901 inactive; SID160723269 0.568 inactive
VN1R5 (vomeronasal 1 receptor 5 (gene/pseudogene)): SID160763917 -1.7 inactive; SID160763919 0.733 inactive; SID160763920 0.00459 inactive
EFNA4 (ephrin A4): SID160758552 0.0743 inactive; SID160758563 -1.14 inactive; SID160758574 0.0505 inactive
ORC3 (origin recognition complex subunit 3): SID160736641 -2.17 inactive; SID160736642 1.06 inactive; SID160736643 0.484 inactive
LPIN2 (lipin 2): SID160722743 0.135 inactive; SID160722744 -0.625 inactive; SID160722745 2.81 inactive
